This passage reports binding results from paper PMC9468604.

Amino acid sequences for entries named in this document (tags omitted). A change or cut given only in a name is not applied to a line headed by its entry.
UniProt Q5NBY9: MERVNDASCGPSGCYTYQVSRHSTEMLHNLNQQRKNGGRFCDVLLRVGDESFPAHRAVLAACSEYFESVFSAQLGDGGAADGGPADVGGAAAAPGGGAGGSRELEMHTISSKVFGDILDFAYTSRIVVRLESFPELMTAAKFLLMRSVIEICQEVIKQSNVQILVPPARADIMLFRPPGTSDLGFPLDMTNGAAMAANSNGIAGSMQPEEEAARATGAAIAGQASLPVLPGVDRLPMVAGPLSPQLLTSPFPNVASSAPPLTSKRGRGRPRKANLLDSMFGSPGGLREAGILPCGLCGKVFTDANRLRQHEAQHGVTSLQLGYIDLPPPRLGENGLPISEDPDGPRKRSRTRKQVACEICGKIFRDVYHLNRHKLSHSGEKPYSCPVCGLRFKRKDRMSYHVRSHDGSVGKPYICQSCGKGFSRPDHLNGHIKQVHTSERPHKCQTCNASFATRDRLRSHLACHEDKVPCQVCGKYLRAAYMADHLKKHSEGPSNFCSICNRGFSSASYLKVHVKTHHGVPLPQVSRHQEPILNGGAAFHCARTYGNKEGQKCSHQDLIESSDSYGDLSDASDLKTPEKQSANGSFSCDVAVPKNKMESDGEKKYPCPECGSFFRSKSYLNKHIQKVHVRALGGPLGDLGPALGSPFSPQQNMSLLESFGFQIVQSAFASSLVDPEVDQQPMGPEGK

These are yes or no findings as the source states them, for the method shown. Binding calls can cover weak binding; strength is not graded here. Sequences can lack the tags named with a protein.

This experiment has as its target PATZ1 BTB domain with C-terminal tagGFP (BTB-tagGFP) (mouse) (UniProt Q5NBY9). Put plainly: two-hybrid; fluorescent two-hybrid (F2H) in live BHK-1 cells with a genomic LacO array; the tagGFP-BTB fusion is held at the LacO focus by GBP-LacI, a co-localised focus of the tagRFP-BTB fusion is scored by fluorescence microscopy 24 h after transfection; colocalization = percentage of GFP foci-positive cells also positive for RFP foci.

B1: PATZ2 BTB domain (NLS-tagGFP-BTB or tagRFP-BTB fusion) (domain or fragment, UniProt O43167 10-133)
chain: GQLVVHSDAHSDTVLASFEDQRKKGFLCDITLIVENVHFRAHKALLAASSEYFSMMFAEEGEIGQSIYMLEGMVADTFGILLEFIYTGYLHASEKSTEQILATAQFLKVYDLVKAYTDFQNNHS
Take B1: the binding entry was “binds”.
